These results are taken from patent publication US20260266848A1, “COMPOSITIONS AND METHODS FOR DIAGNOSING AND TREATING DYSTONIA” (Duke University, priority 2023, published 2026).

B1: Wdr26 (protein, UniProt Q8C6G8 1-641, looked up)
WD repeat-containing protein …: MQANGAGGGGGGGGGGQGQTPELACLSAQNGESSPSATSAGDLAHANGLLPAAPSAAGNNSNSLSVNNGVPGGAAAASATAAAAQATPELGSSLKKKKRLSQSDEDVIRLIGQHLNGLGLNQTVDLLMQESGCRLEHPSATKFRNHVMEGDWDKAENDLNELKPLVHSPHAIVVRGALEISQTLLGIIVRMKFLLLQQKYLEYLEDGKVLEALQVLRCELTPLKYNTERIHVLSGYLMCSHAEDLRAKAEWEGKGTASRSKLLDKLQTYLPPSVMLPPRRLQTLLRQAVELQRDRCLYHNTKLDNNLDSVSLLIDHVCSRRQFPCYTQQILTEHCNEVWFCKFSNDGTKLATGSKDTTVIIWQVDPDTHLLKLLKTLEGHAYGVSYIAWSPDDSYLVACGPDDCSELWLWNVQTGELRTKMSQSHEDSLTSVAWNPDGKRFVTGGQRGQFYQCDLDGNLLDSWEGVRVQCLWCLSDGKTVLASDTHQRVRGYNFEDLTDRNIVQEDHPIMSFTISKNGRLALLNVATQGVHLWDLQDRVLVRKYQGVTQGFYTIHSCFGGHNEDFIASGSEDHKVYIWHKRSELPIAELTGHTRTVNCVSWNPQIPSMMASASDDGTVRIWGPAPFIDHQNIEEECSSMDS
B2: Ap1b1 (protein, UniProt O35643 1-943, looked up)
AP-1 complex subunit beta-1: MTDSKYFTTTKKGEIFELKAELNSDKKEKKKEAVKKVIASMTVGKDVSALFPDVVNCMQTDNLELKKLVYLYLMNYAKSQPDMAIMAVNTFVKDCEDPNPLIRALAVRTMGCIRVDKITEYLCEPLRKCLKDEDPYVRKTAAVCVAKLHDINAQLVEDQGFLDTLKDLISDSNPMVVANAVAALSEIAESHPSSNLLDLNPQSINKLLTALNECTEWGQIFILDCLANYMPKDDREAQSICERVTPRLSHANSAVVLSAVKVLMKFMEMLSKDLDYYATLLKKLAPPLVTLLSAEPELQYVALRNINLIVQKRPEILKHEMKVFFVKYNDPIYVKLEKLDIMIRLASQANIAQVLAELKEYATEVDVDFVRKAVRAIGRCAIKVEQSAERCVSTLLDLIQTKVNYVVQEAIVVIKDIFRKYPNKYESVIATLCENLDSLDEPEARAAMIWIVGEYAERIDNADELLESFLEGFHDESTQVQLQLLTAIVKLFLKKPTETQELVQQVLSLATQDSDNPDLRDRGYIYWRLLSTDPVAAKEVVLAEKPLISEETDLIEPTLLDELICYIGTLASVYHKPPNAFVEGGRGVVHKSLPPRTASSESTESPETAPAGAPAGDQPDVIPAQGDLLGDLLNLDLGPPVSGPPLAASSVQMGAVDLLGGGLDSLIGDSNFGAPSASVAAAPAPARLGAPISSGLSDLFDLTSGVGTLSGSYVAPKAVWLPAMKAKGLEISGTFTRQAGSISMDLQLTNKALQVMTDFAIQFNRNSFGLAPAAPLQVHVPLSPNQTVEISLPLNTVGSVLKMEPLNNLQVAVKNNIDVFYFSTLYPLHVLFVEDGKMDRQMFLATWKDIANENEAQFQIRDCPLNTEAASNKLQSSNIFTVAKRNVEGQDMLYQSLKLTNGIWVLAELRIQPGNPSFTLSLKCRAPEVSQHVYQAYETILKN
B3: Ipo9 (protein, UniProt Q91YE6 2-1041, looked up)
Importin-9: AAAAAAGAASGLPGPVAQGLKEALVDTLTGILSPVQEVRAAAEEQIKVLEVTEEFGVHLAELTVDPQGALAIRQLASVILKQYVETHWCAQSEKFRPPETTERAKIVIRELLPNGLRESISKVRSSVAYAVSAIAHWDWPEAWPQLFNLLMEMLVSGDLNAVHGAMRVLTEFTREVTDTQMPLVAPVILPEMYKIFTMAEVYGIRTRSRAVEIFTTCAHMICNMEELEKGAAKVLIFPVVQQFTEAFVQALQMPDGPTSDSGFKMEVLKAVTALVKNFPKHMVSSMQQILPIVWNTLTESAAFYVRTEVNYTEEVEDPVDSDGEVLGFENLVFSIFEFVHALLENSKFKSTVKKALPELIYYIILYMQITEEQIKVWTANPQQFVEDEDDDTFSYTVRIAAQDLLLAVATDFQNESAVALATAATRHLQEAEQTKASGTEHWWKIHEACMLALGSVKSIITDSVKNGRIHFDMHGFLTNVILADLNLSASPFLLGRALWAASRFTVAMSPELIQQFLQATVSGLHETQPPSVRISAVRAIWGYCDQLKVSESTHVLQPFLPSILDGLIHLAAQFSSEVLNLVMETLCIVCTVDPEFTASVENKICPFTIAIFLKYSNDPVVASLAQDIFKELSQIEACQGPMQMRLIPTLVSIMQAPADKIPAGLCATAIDILTTVVRNTKPPLSQLLICQAFPAVAQCTLHTDDNATMQNGGECLRAYVSVTLEQVAQWHDEQGHNGLWYVMQVVSQLLDPRTSEFTAAFVGRLVSTLISKAGRELGENLDQILRAILSKMQQAETLSVMQSLIMVFAHLVHTQLEPLLEFLCSLPGPTGKPALEFVMAEWTSRQHLFYGQYEGKVSSVALCKLLQHGINADDKRLQDIRVKGEEIYSMDEGIRTRSKSAKNPERWTNIPLLVKILKLIINELSNVMEANAARQATPAEWNQDDSNDMWEDQEEEEEEEEDGLAGQLLSDILATSKYEEDYYEDDEEDDPDALKDPLYQIDLQAYLTDFLCQFAQQPCYIMFSCHLNDNERRVLQTIGI
B4: Gart (protein, UniProt Q64737 2-1010, looked up)
Trifunctional purine …: AARVLVIGSGGREHTLAWKLAQSPQVKQVLVAPGNAGTACAGKISNAAVSVNDHSALAQFCKDEKIELVVVGPEAPLAAGIVGDLTSAGVRCFGPTAQAAQLESSKKFAKEFMDRHEIPTAQWRAFTNPEDACSFITSANFPALVVKASGLAAGKGVIVAKSQAEACRAVQEIMQEKSFGAAGETVVVEEFLEGEEVSCLCFTDGKTVAEMPPAQDHKRLLDGDEGPNTGGMGAYCPAPQVSKDLLVKIKNTILQRAVDGMQQEGAPYTGILYAGIMLTKDGPKVLEFNCRFGDPECQVILPLLKSDLYEVMQSTLDGLLSASLPVWLENHSAVTVVMASKGYPGAYTKGVEITGFPEAQALGLQVFHAGTALKDGKVVTSGGRVLTVTAVQENLMSALAEARKGLAALKFEGAIYRKDIGFRAVAFLQRPRGLTYKDSGVDIAAGNMLVKKIQPLAKATSRPGCSVDLGGFAGLFDLKAAGFKDPLLASGTDGVGTKLKIAQLCNKHDSIGQDLVAMCVNDILAQGAEPLFFLDYFSCGKLDLSTTEAVIAGIAAACQQAGCALLGGETAEMPNMYPPGEYDLAGFAVGAMERHQKLPQLERITEGDAVIGVASSGLHSNGFSLVRKIVERSSLQYSSPAPGGCGDQTLGDLLLTPTRIYSHSLLPIIRSGRVKAFAHITGGGLLENIPRVLPQKFGVDLDASTWRVPKVFSWLQQEGELSEEEMARTFNCGIGAALVVSKDQAEQVLHDVRRRQEEAWVIGSVVACPEDSPRVRVKNLIETIQTNGSLVANGFLKSNFPVQQKKARVAVLISGTGSNLQALIDSTRDPKSSSHIVLVISNKAAVAGLDRAERAGIPTRVINHKLYKNRVEFDNAVDHVLEEFSVDIVCLAGFMRILSGPFVRKWDGKMLNIHPSLLPSFKGSNAHEQVLEAGVTITGCTVHFVAEDVDAGQIILQEAVPVRRGDTVATLSERVKVAEHKIFPAALQLVASGAVQLREDGKIHWAKEQ
B5: Mrc2 (protein, UniProt Q64449 31-1479, looked up)
C-type mannose receptor 2: ADSAAALLEPDVFLIFSQGMQGCLEAQGVQVRVTPVCNASLPAQRWKWVSRNRLFNLGATQCLGTGWPVTNTTVSLGMYECDREALSLRWQCRTLGDQLSLLLGARASNASKPGTLERGDQTRSGHWNIYGSEEDLCARPYYEVYTIQGNSHGKPCTIPFKYDNQWFHGCTSTGREDGHLWCATTQDYGKDERWGFCPIKSNDCETFWDKDQLTDSCYQFNFQSTLSWREAWASCEQQGADLLSITEIHEQTYINGLLTGYSSTLWIGLNDLDTSGGWQWSDNSPLKYLNWESDQPDNPGEENCGVIRTESSGGWQNHDCSIALPYVCKKKPNATVEPIQPDRWTNVKVECDPSWQPFQGHCYRLQAEKRSWQESKRACLRGGGDLLSIHSMAELEFITKQIKQEVEELWIGLNDLKLQMNFEWSDGSLVSFTHWHPFEPNNFRDSLEDCVTIWGPEGRWNDSPCNQSLPSICKKAGRLSQGAAEEDHGCRKGWTWHSPSCYWLGEDQVIYSDARRLCTDHGSQLVTITNRFEQAFVSSLIYNWEGEYFWTALQDLNSTGSFRWLSGDEVIYTHWNRDQPGYRRGGCVALATGSAMGLWEVKNCTSFRARYICRQSLGTPVTPELPGPDPTPSLTGSCPQGWVSDPKLRHCYKVFSSERLQEKKSWIQALGVCRELGAQLLSLASYEEEHFVAHMLNKIFGESEPESHEQHWFWIGLNRRDPREGHSWRWSDGLGFSYHNFARSRHDDDDIRGCAVLDLASLQWVPMQCQTQLDWICKIPRGVDVREPDIGRQGRLEWVRFQEAEYKFFEHHSSWAQAQRICTWFQADLTSVHSQAELDFLGQNLQKLSSDQEQHWWIGLHTLESDGRFRWTDGSIINFISWAPGKPRPIGKDKKCVYMTARQEDWGDQRCHTALPYICKRSNSSGETQPQDLPPSALGGCPSGWNQFLNKCFRIQGQDPQDRVKWSEAQFSCEQQEAQLVTIANPLEQAFITASLPNVTFDLWIGLHASQRDFQWIEQEPLLYTNWAPGEPSGPSPAPSGTKPTSCAVILHSPSAHFTGRWDDRSCTEETHGFICQKGTDPSLSPSPAATPPAPGAELSYLNHTFRLLQKPLRWKDALLLCESRNASLAHVPDPYTQAFLTQAARGLQTPLWIGLASEEGSRRYSWLSEEPLNYVSWQDEEPQHSGGCAYVDVDGTWRTTSCDTKLQGAVCGVSRGPPPRRINYRGSCPQGLADSSWIPFREHCYSFHMEVLLGHKEALQRCQKAGGTVLSILDEMENVFVWEHLQTAEAQSRGAWLGMNFNPKGGTLVWQDNTAVNYSNWGPPGLGPSMLSHNSCYWIQSSSGLWRPGACTNITMGVVCKLPRVEENSFLPSAALPESPVALVVVLTAVLLLLALMTAALILYRRRQSAERGSFEGARYSRSSHSGPAEATEKNILVSDMEMNEQQE

One series has as its system DYT-TOR1A MEF EVs. Description: Quantitative LC-MS/MS proteomics of EVs from drug-treated DYT-TOR1A MEF cultures (ritonavir, salubrinal). The series is classed as cell-based, mouse. As to conditions: Directionality of protein change in MEFs EV dataset in DYT1 derived MEFs treated with Ritonavir.
Take B1: the “DYT1/DYT1 + RTV” value is on record as “DOWN”.

On to B2, for which the “DYT1/DYT1 + RTV” value is “DOWN”.

Take B3: the “DYT1/DYT1 + RTV” value is recorded as “DOWN”.

Take B4: the “DYT1/DYT1 + RTV” value is given as “DOWN”.

Still in this series, the particulars now being: Directionality of protein change in MEFs EV dataset in DYT1 derived MEFs treated with salubrinal.
In the case of B2, the “DYT1/DYT1 + Sal” value is given as “DOWN”.

With B3, the “DYT1/DYT1 + Sal” value was “DOWN”.

Take B4: the “DYT1/DYT1 + Sal” value is recorded as “DOWN”.

B5: the “DYT1/DYT1 + Sal” value is “DOWN”.

The series is the same for the next values; noted with them: Ritonavir; was treatment in MEF's in the direction of WT-like?
On to B1, for which the “RTV Corrective Direction” value is on record as “Yes”.

With B2, the “RTV Corrective Direction” value is given as “Yes”.

In the case of B3, the “RTV Corrective Direction” value is recorded as “Yes”.

In the case of B4, the “RTV Corrective Direction” value was “Yes”.

With B5, the “RTV Corrective Direction” value is “Yes”.

Staying with this series, now noted: Salubrinal; was treatment in MEF's in the direction of WT-like?
As for B1, the “Sal Corrective Direction” value was “No”.

Consider B2, for which the “Sal Corrective Direction” value was “Yes”.

On to B3, for which the “Sal Corrective Direction” value is given as “Yes”.

As for B4, the “Sal Corrective Direction” value was “Yes”.

For B5, the “Sal Corrective Direction” value is listed as “No”.

The next series relates to WT MEF EVs. In words: Quantitative LC-MS/MS proteomics of EVs from ISRIB-treated WT MEF cultures. The series is classed as cell-based, mouse. Particulars: Directionality of protein change in MEFs EV dataset in WT derived MEFs treated with ISRIB.
Regarding B1, the “WT + ISRIB/WT” value was “DOWN”.

In the case of B2, the “WT + ISRIB/WT” value is given as “DOWN”.

For B3, the “WT + ISRIB/WT” value is “DOWN”.

As to B4, the “WT + ISRIB/WT” value is “DOWN”.

In the case of B5, the “WT + ISRIB/WT” value is reported as “DOWN”.

The test system of a further series is DYT-TOR1A MEF EVs. Description: Quantitative LC-MS/MS proteomics of MEF EVs, DYT-TOR1A genotype vs WT. In kind it is cell-based, mouse. Particulars: Directionality of protein change in MEFs EV dataset between WT and DYT1 derived MEFs.
Take B1: the DYT1/WT entry is recorded as “DOWN”.

Turning to B2, the DYT1/WT entry is listed as “DOWN”.

As for B3, the DYT1/WT result is on record as “DOWN”.

In the case of B4, the DYT1/WT entry is “DOWN”.
